Test results: paper PMC9875608
Results are given in words; binding and its absence hold for the method and conditions named. Binding seen in cells or lysates may run through a third protein. Binding calls can cover weak binding; strength is not graded here. For part of these data: Tags and fused reporters may be left off the sequences shown.

Amino acid sequences for entries named in this document (tags omitted). A change or cut given only in a name is not applied to a line headed by its entry. Residues count along the entry.
UniProt P38646, residues 47-679: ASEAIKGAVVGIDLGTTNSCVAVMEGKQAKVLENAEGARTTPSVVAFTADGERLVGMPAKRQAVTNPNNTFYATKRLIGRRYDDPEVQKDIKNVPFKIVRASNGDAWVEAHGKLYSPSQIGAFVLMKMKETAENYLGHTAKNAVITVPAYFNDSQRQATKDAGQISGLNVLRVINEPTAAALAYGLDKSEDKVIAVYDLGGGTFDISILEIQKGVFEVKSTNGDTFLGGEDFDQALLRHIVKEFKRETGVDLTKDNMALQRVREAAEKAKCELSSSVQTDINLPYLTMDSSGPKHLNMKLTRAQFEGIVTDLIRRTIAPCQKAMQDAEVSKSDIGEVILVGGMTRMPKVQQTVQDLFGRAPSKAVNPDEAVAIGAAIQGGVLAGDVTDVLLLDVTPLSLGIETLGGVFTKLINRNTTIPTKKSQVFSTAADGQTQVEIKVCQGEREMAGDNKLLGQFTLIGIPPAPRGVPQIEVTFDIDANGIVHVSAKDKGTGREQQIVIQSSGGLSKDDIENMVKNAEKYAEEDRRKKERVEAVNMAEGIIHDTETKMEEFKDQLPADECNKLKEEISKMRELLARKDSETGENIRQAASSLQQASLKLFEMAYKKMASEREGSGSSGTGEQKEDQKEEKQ
UniProt Q86WV6: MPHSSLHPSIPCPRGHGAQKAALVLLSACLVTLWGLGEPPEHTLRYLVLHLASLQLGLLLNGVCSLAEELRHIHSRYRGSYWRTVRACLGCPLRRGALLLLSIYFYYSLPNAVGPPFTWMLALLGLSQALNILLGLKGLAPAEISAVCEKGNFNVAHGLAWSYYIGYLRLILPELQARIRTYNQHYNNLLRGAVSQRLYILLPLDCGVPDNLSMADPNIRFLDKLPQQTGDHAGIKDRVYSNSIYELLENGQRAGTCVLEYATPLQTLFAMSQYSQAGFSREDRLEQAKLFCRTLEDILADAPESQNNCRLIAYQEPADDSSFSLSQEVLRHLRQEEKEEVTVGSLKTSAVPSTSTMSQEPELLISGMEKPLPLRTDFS

Tests used:
HA-VDAC2-WT (pCDNA3) = target: T1, HA-VDAC2-WT (pCDNA3) (UniProt P45880); assay: co-IP; HA-IP (anti-HA agarose) from HEK293T cells transfected with the indicated constructs, immunoblot; Figures 3Q, 4H, 4J
T1 sequence: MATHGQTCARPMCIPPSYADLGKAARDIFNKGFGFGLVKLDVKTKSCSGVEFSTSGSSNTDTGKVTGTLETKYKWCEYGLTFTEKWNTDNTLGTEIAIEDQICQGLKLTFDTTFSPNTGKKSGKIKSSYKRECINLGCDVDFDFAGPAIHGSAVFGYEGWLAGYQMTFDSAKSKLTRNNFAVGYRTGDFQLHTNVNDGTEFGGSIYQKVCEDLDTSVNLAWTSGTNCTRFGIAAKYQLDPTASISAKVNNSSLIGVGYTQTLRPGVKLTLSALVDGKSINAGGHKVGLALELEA

[1] = target: GST-GRP75 (CMV-GST-GRP75) (human (hORFeome V5.1 collection)) (UniProt P38646); assay: pull-down; GST pull-down (glutathione agarose) from HEK293T cells transfected with the indicated constructs, immunoblot; Figure 4K

Row | Substance | binding (HA-VDAC2-WT (pCDNA3)) | binding [1]
1 | Flag-STING-C88A (pCDNA3.0) (from UniProt Q86WV6) | binds | –
2 | Flag-STING-C88A/C91A (pCDNA3.0) (from UniProt Q86WV6) | – | binds
3 | Flag-STING-C91A (pCDNA3.0) (from UniProt Q86WV6) | binds | –
